Source: the supplement of paper PMC2577665
± gives the standard deviation of the averaged measurements. This is a noisy data set.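 Each test well overexpressed one poorly characterized human cDNA in ERalpha-negative HeLa cells together with transfected ERalpha and a reporter carrying two estrogen response elements. A gene counted as a repressor hit if it cut the signal to the level of the BRCA1 positive control (about 0.6 of empty vector) or lower.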

tested on: ERE-luciferase reporter with exogenous ERalpha in HeLa cells; assay: relative ERE luciferase activity (Firefly/Renilla) upon cDNA overexpression, relative to empty vector (fold of empty vector); higher = stronger ERalpha transactivation (less repression); conditions: 17beta-estradiol: 10 nM; 12 h

Sequence | relative ERE luciferase activity
MSRIPLGKVLLRNVIRHTDAHNKIQEESDMWKIRELEKQMEDAYRGTKRKMLPSSSSRMRSDGFDEESQRYYWRPKNEISGTLEDDFLKAKSWNKKFYDYEANMPDRWGHSGYKELYPEEFETDSDQQDITNGKKTSPQVKSSTHESRKHKKSKKSHKKKQKKRSHKKQKKSKKEATDITADSSSEFSEETGASGTRKGKQPHKRKKKSRKKSLKKPALFLEAESNTSHSDDSASSSSEESEERDTKKTKRKKREKKAHTSVANNEIQERTNKRTNWKVATDERSAESSEDD [C11orf57] | 1.94
MSRPLITRSPASPLNNQGIPTPAQLTKSNAPVHIDVGGHMYTSSLATLTKYPESRIGRLFDGTEPIVLDSLKQHYFIDRDGQMFRYILNFLRTSKLLIPDDFKDYTLLYEEAKYFQLQPMLLEMERWKQDRETGRFSRPCECLVVRVAPDLGERITLSGDKSLIEEVFPEIGDVMCNSVNAGWNHDSTHVIRFPLNGYCHLNSVQVLERLQQRGFEIVGSCGGGVDSSQFSEYVLRRELRRTPRVPSVIRIKQEPLD [KCTD1] | 1.25
MSSKKAKTKTTKKRPQRATSNVFAMFDQSQIQEFKEAFNMIDQNRDGFIDKEDLHDMLASLGKNPTDAYLDAMMNEAPGPINFTMFLTMFGEKLNGTDPEDVIRNAFACFDEEATGTIQEDYLRELLTTMGDRFTDEEVDELYREAPIDKKGNFNYIEFTRILKHGAKDKDD [MRLC2] | 1.01
MSSQELVTLNVGGKIFTTRFSTIKQFPASRLARMLDGRDQEFKMVGGQIFVDRDGDLFSFILDFLRTHQLLLPTEFSDYLRLQREALFYELRSLVDLLNPYLLQPRPALVEVHFLSRNTQAFFRVFGSCSKTIEMLTGRITVFTEQPSAPTWNGNFFPPQMTLLPLPPQRPSYHDLVFQCGSDSTTDNQTGVRYVSIKPDNRKLANGTNVLGLLIDTLLKEGFHLVSTRTVSSEDKTECYSFERIKSPEVLITNETPKPETIIIPEQSQIKK [KCNRG] | 1.16
MSTAALITLVRSGGNQVRRRVLLSSRLLQDDRRVTPTCHSSTSEPRCSRFDPDGSGSPATWDNFGIWDNRIDEPILLPPSIKYGKPIPKISLENVGCASQIGKRKENEDRFDFAQLTDEVLYFAVYDGHGGPAAADFCHTHMEKCIMDLLPKEKNLETLLTLAFLEIDKAFSSHARLSADATLLTSGTTATVALLRDGIELVVASVGDSRAILCRKGKPMKLTIDHTPERKDEKERIKKCGGFVAWNSLGQPHVNGRLAMTRSIGDLDLKTSGVIAEPETKRIKLHHADDSFLVLTTDGINFMVNSQEICDFVNQCHDPNEAAHAVTEQAIQYGTEDNSTAVVVPFGAWGKYKNSEINFSFSRSFASSGRWA [PPM1K] | 1.02
MSTAAVPELKQISRVEAMRLGPGWSHSCHAMLYAANPGQLFGRIPMRFSVLMQMRFDGLLGFPGGFVDRRFWSLEDGLNRVLGLGLGCLRLTEADYLSSHLTEGPHRVVAHLYARQLTLEQLHAVEISAVHSRDHGLEVLGLVRVPLYTQKDRVGGFPNFLSNAFVSTAKCQLLFALKVLNMMPEEKLVEALAAATEKQKKALEKLLPASS [NUDT16L1] | 2.45
MSTIQNLQSFDPFADATKGDDLLPAGTEDYIHIRIQQRNGRKTLTTVQGIADDYDKKKLVKAFKKKFACNGTVIEHPEYGEVIQLQGDQRKNICQFLLEVGIVKEEQLKVHGF [EIF1B] | 1.32
MSTLCPPPSPAVAKTEIALSGKSPLLAATFAYWDNILGPRVRHIWAPKTEQVLLSDGEITFLANHTLNGEILRNAESGAIDVKFFVLSEKGVIIVSLIFDGNWNGDRSTYGLSIILPQTELSFYLPLHRVCVDRLTHIIRKGRIWMHKERQENVQKIILEGTERMEDQGQSIIPMLTGEVIPVMELLSSMKSHSVPEEIDIADTVLNDDDIGDSCHEGFLLNAISSHLQTCGCSVVVGSSAEKVNKIVRTLCLFLTPAERKCSRLCEAESSFKYESGLFVQGLLKDSTGSFVLPFRQVMYAPYPTTHIDVDVNTVKQMPPCHEHIYNQRRYMRSELTAFWRATSEEDMAQDTIIYTDESFTPDLNIFQDVLHRDTLVKAFLDQVFQLKPGLSLRSTFLAQFLLVLHRKALTLIKYIEDDTQKGKKPFKSLRNLKIDLDLTAEGDLNIIMALAEKIKPGLHSFIFGRPFYTSVQERDVLMTF [C9orf72] | 1.09
MSTSTSPAAMLLRRLRRLSWGSTAVQLFILTVVTFGLLAPLACHRLLHSYFYLRHWHLNQMSQEFLQQSLKEGEAALHYFEELPSANGSVPIVWQATPRPWLVITIITVDRQPGFHYVLQVVSQFHRLLQQCGPQCEGHQLFLCNVERSVSHFDAKLLSKYVPVANRYEGTEDDYGDDPSTNSFEKEKQDYVYCLESSLQTYNPDYVLMVEDDAVPEEQIFPVLEHLLRARFSEPHLRDALYLKLYHPERLQHYINPEPMRILEWVGVGMLLGPLLTWIYMRFASRPGFSWPVMLFFSLYSMGLVELVGRHYFLELRRLSPSLYSVVPASQCCTPAMLFPAPAARRTLTYLSQVYCHKGFGKDMALYSLLRAKGERAYVVEPNLVKHIGLFSSLRYNFHPSLL [C9orf125] | 1.83 ± 1.2
MSWLFPLTKSASSSAAGSPGGLTSLQQQKQRLIESLRNSHSSIAEIQKDVEYRLPFTINNLTININILLPPQFPQEKPVISVYPPIRHHLMDKQGVYVTSPLVNNFTMHSDLGKIIQSLLDEFWKNPPVLAPTSTAFPYLYSNPSGMSPYASQGFPFLPPYPPQEANRSITSLSVADTVSSSTTSHTTAKPAAPSFGVLSNLPLPIPTVDASIPTSQNGFGYKMPDVPDAFPELSELSVSQLTDMNEQEEVLLEQFLTLPQLKQIITDKDDLVKSIEELARKNLLLEPSLEAKRQTVLDKYELLTQMKSTFEKKMQRQHELSESCSASALQARLKVAAHEAEEESDNIAEDFLEGKMEIDDFLSSFMEKRTICHCRRAKEEKLQQAIAMHSQFHAPL [VPS37A] | 1.12 ± 0.053
MSYKPIAPAPSSTPGSSTPGPGTPVPTGSVPSPSGSVPGAGAPFRPLFNDFGPPSMGYVQAMKPPGAQGSQSTYTDLLSVIEEMGKEIRPTYAGSKSAMERLKRGIIHARALVRECLAETERNART [CDK2AP2] | 1
MTAWILLPVSLSAFSITGIWTVYAMAVMNHHVCPVENWSYNESCPPDPAEQGGPKTCCTLDDVPLISKCGSYPPESCLFSLIGNMGAFMVALICLLRYGQLLEQSRHSWVNTTALITGCTNAAGLLVVGNFQVDHARSLHYVGAGVAFPAGLLFVCLHCALSYQGATAPLDLAVAYLRSVLAVIAFITLVLSGVFFVHESSQLQHGAALCEWVCVIDILIFYGTFSYEFGAVSSDTLVAALQPTPGRACKSSGSSSTSTHLNCAPESIAMI [TMEM150] | 1.09
MTEEPIKEILGAPKAHMAATMEKSPKSEVVITTVPLVSEIQLMAATGGTELSCYRCIIPFAVVVFIAGIVVTAVAYSFNSHGSIISIFGLVVLSSGLFLLASSALCWKVRQRSKKAKRRESQTALVANQRSLFA [TMEM100] | 1.02
MTEETHPDDDSYIVRVKAVVMTRDDSSGGWFPQEGGGISRVGVCKVMHPEGNGRSGFLIHGERQKDKLVVLECYVRKDLVYTKANPTFHHWKVDNRKFGLTFQSPADARAFDRGVRKAIEDLIEGSTTSSSTIHNEAELGDDDVFTTATDSSSNSSQKREQPTRTISSPTSCEHRRIYTLGHLHDSYPTDHYHLDQPMPRPYRQVSFPDDDEEIVRINPREKIWMTGYEDYRHAPVRGKYPDPSEDADSSYVRFAKGEVPKHDYNYPYVDSSDFGLGEDPKGRGGSVIKTQPSRGKSRRRKEDGERSRCVYCRDMFNHEENRRGHCQDAPDSVRTCIRRVSCMWCADSMLYHCMSDPEGDYTDPCSCDTSDEKFCLRWMALIALSFLAPCMCCYLPLRACYHCGVMCRCCGGKHKAAA [SPRED2] | 1.08
MTKIKADPDGPEAQAEACSGERTYQELLVNQNPIAQPLASRRLTRKLYKCIKKAVKQKQIRRGVKEVQKFVNKGEKGIMVLAGDTLPIEVYCHLPVMCEDRNLPYVYIPSKTDLGAAAGSKRPTCVIMVKPHEEYQEAYDECLEEVQSLPLPL [NOLA2] | 1.18
MTKTALLKLFVAIVITFILILPEYFKTPKERTLELSCLEVCLQSNFTYSLSSLNFSFVTFLQPVRETQIIMRIFLNPSNFRNFTRTCQDITGEFKMCSSCLVCESKGNMDFISQEQTSKVLIRRGSMEVKANDFHSPCQHFNFSVAPLVDHLEEYNTTCHLKNHTGRSTIMEDEPSKEKSINYTCRIMEYPNDCIHISLHLEMDIKNITCSMKITWYILVLLVFIFLIILTIRKILEGQRRVQKWQSHRDKPTSVLLRGSDSEKLRALNVQVLSAETTQRLPLDQVQEVLPPIPEL [TMEM156] | 1.02
MTKTSTCIYHFLVLSWYTFLNYYISQEGKDEVKPKILANGARWKYMTLLNLLLQTIFYGVTCLDDVLKRTKGGKDIKFLTAFRDLLFTTLAFPVSTFVFLAFWILFLYNRDLIYPKVLDTVIPVWLNHAMHTFIFPITLAEVVLRPHSYPSKKTGLTLLAAASIAYISRILWLYFETGTWVYPVFAKLSLLGLAAFFSLSYVFIASIYLLGEKLNHWKWGDMRQPRKKRK [C6orf105] | 1.12
MTSLPCPLPGRDASKAVFPDLAPVPSVAAAYPLGLSPTTAASPNLSYSRPYGHLLSYPYTEPANPGDSYLSCQQPAALSQPLCGPAEHPQELEADSEKPRLSPEPSERRPQAPAKKLRKPRTIYSSLQLQHLNQRFQHTQYLALPERAQLAAQLGLTQTQVKIWFQNKRSKYKKLLKQNSGGQEGDFPGRTFSVSPCSPPLPSLWDLPKAGTLPTSGYGNSFGAWYQHHSSDVLASPQMM [DLX4] | 2.5
MTTAARPTFEPARGGRGKGEGDLSQLSKQYSSRDLPSHTKIKYRQTTQDAPEEVRNRDFRRELEERERAAAREKNRDRPTREHTTSSSVSKKPRLDQIPAANLDADDPLTDEEDEDFEEESDDDDTAALLAELEKIKKERAEEQARKEQEQKAEEERIRMENILSGNPLLNLTGPSQPQANFKVKRRWDDDVVFKNCAKGVDDQKKDKRFVNDTLRSEFHKKFMEKYIK [CWC15] | 1.21
MTTEIGWWKLTFLRKKKSTPKVLYEIPDTYAQTEGDAEPPRPDAGGPNSDFNTRLEKIVDKSTKGKHVKVSNSGRFKEKKKVRATLAENPNLFDDHEEGRSSK [ATAD4] | 1.02
MVAADQGRGWNPLDGPTWEVLAMPLPLGPATQVPALFSAALVPPVSSLRPNQMLDWQRLKTPHGAPVACSLGLSGEWVPTPCALSILALLGLQLDPLFGLWGCTRTLFWSEWARESRRP [TMEM148] | 1.14
MVKCCSAIGCASRCLPNSKLKGLTFHVFPTDENIKRKWVLAMKRLDVNAAGIWEPKKGDVLCSRHFKKTDFDRSAPNIKLKPGVIPSIFDSPYHLQGKREKLHCRKNFTLKTVPATNYNHHLVGASSCIEEFQSQFIFEHSYSVMDSPKKLKHKLDHVIGELEDTKESLRNVLDREKRFQKSLRKTIRELKDECLISQETANRLDTFCWDCCQESIEQDYIS [THAP6] | 1.18 ± 0.24
